Test results reported in PubChem BioAssay AID1671190 (National Center for Advancing Translational Sciences (NCATS), 2021).
Out of some 580,000 compounds screened, about 6,100 (1.1%) were called active. Inconclusive means that the source gave no clear call. Such entries were picked first, then a sample of the others. Calls follow the shape of the dose curve; as a rule, active = well fitted inhibition curve with a large enough effect; inconclusive = small, poorly fitted or top-dose-only effect, or another doubt; inactive = no such curve, though single readings can be large or run the other way. Potencies of inconclusive entries are doubtful fits and often do not repeat.

The chains behind the UniProt entries cited, without tags or fusion partners. Where a name states a change or a piece, a line headed by the entry shows the natural chain unless it says otherwise.
UniProt P18054: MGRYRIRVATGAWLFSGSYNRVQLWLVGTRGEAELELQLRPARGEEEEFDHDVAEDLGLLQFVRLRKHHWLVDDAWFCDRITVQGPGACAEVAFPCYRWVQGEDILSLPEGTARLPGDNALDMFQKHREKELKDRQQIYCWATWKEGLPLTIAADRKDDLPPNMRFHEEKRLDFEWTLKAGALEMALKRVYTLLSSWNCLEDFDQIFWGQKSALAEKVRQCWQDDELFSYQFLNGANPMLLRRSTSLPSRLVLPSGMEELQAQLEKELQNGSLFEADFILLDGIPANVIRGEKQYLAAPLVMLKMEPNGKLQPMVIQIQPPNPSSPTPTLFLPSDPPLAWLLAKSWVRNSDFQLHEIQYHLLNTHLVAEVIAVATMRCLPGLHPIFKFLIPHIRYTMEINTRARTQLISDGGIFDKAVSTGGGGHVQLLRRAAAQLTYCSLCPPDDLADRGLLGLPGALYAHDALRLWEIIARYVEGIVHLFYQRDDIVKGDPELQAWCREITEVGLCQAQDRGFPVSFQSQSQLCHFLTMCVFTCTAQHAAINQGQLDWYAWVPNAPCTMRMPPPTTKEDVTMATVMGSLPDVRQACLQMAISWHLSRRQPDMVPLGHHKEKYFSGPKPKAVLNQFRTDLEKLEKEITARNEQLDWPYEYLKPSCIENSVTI

Target: Polyunsaturated fatty acid lipoxygenase ALOX12 (Homo sapiens) (UniProt P18054)
Assay: Primary qHTS assay for inhibitors of human arachidonate 12S-lipoxygenase (ALOX12): Round 2
Conditions: purified 12hLO, xylenol orange hydroperoxide absorbance; activity change, negative = inhibition: at 108 µM (top of the series) unless noted
Summary of the method: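 Purified human 12hLO at 150 nM in 25 mM Hepes, 0.01% Triton X-100, pH 7.0, preincubated 15 min at room temperature with compound. Reaction started with 40 uM arachidonic acid, 30 min at room temperature. Hydroperoxide measured by Fe-xylenol orange, 573/405 nm absorbance ratio.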
% is scaled to controls: 0 for no effect and ±100 for the full control effect; potency is read from the fitted curve at half-maximal effect.

SMILES | Potency | activity change, negative = inhibition
CC(Nc1ccc([N+](=O)[O-])cn1)c1ccc(Cl)cc1Cl (stereo not given) | active: 56.2 µM | –
Cc1ccn2cc(-c3ccc(NC(=O)CCc4ccccc4)cc3)nc2n1 | inconclusive: 44.7 µM [inhibitor, partial curve, poor fit] | –
COc1ccc2c(CC(=O)N[C@@H](Cc3c[nH]c4ccccc34)C(=O)O)cc(=O)oc2c1 | inconclusive: 35.5 µM [inhibitor, partial curve, poor fit] | –
COc1ccccc1-c1cncnc1NCc1cnc(C)cn1 | inconclusive: 7.08 µM [inhibitor, full curve] | –
O=C(Cc1cccs1)Nc1cccc(-c2nc3cc(Cl)ccc3o2)c1 | inconclusive: 56.2 µM [inhibitor, partial curve, poor fit] | –
Cc1nccn1-c1c([N+](=O)[O-])c(=O)n(C)c2ccccc12 | inactive | –
COc1cc(C=O)ccc1Oc1nc(Nc2ccc(F)cc2F)nc(N2CCOCC2)n1 | inconclusive: 158 µM [inhibitor, partial curve, poor fit] | –
O=C(N[C@@H]1C/C=C\C[C@H](CC(=O)N(CCO)Cc2ccccc2)C(=O)NC[C@@H](c2ccccc2)OC1=O)OCC1c2ccccc2-c2ccccc21 | inconclusive: 89.1 µM [inhibitor, partial curve, poor fit] | –
CCOc1ccc(OCCC(=O)N(CC(=O)Nc2ccccc2C(F)(F)F)Cc2ccco2)cc1 | inconclusive: 50.1 µM [inhibitor, partial curve, poor fit] | –
CC(CCN1CCC(CN2C(=O)C(=O)NC[C@@H]2Cc2ccccc2)CC1)c1ccccc1 (stereo not given in full) | active: 39.8 µM | –
COc1ccc(-c2c(-c3cc(OC)cc(OC)c3)n(C)c3ccc(-c4ccc(OC)cc4F)cc23)cc1 | inactive | –
Cc1cc(OCc2nc3ccccc3s2)ccc1N | inconclusive: 44.7 µM [inhibitor, partial curve, poor fit] | –
COc1cc(/C=N/NC(N)=S)cc(Br)c1OCc1ccccc1F | inconclusive: 20 µM [inhibitor, partial curve] | –
O=C(NCc1nnc2n1C(C(=O)O)CC2)C1CCCC1 (stereo not given) | inconclusive: 15.8 µM [inhibitor, full curve, poor fit] | –
COc1cc(NC(=O)Nc2ccc3nc(N4CCOCC4)cc(C)c3c2)cc(OC)c1 | inconclusive: 8.91 µM [inhibitor, full curve, poor fit] | –
Cn1c(=O)c2[nH]c(NN=Cc3cccc(Br)c3)nc2n(C)c1=O | inactive | –
Cc1noc(C)c1CSCC(=O)Nc1nnc(CC(C)C)s1 | inconclusive: 50.1 µM [inhibitor, partial curve, poor fit] | –
Cc1ccc(NC(=O)N2CCCOCCNC(=O)[C@@H]3CCCC[C@@H]32)cc1C | inactive | –
COc1cc(NC(=O)NC[C@H]2O[C@@H](CO)[C@@H](O)[C@H]2N2CCC(C)CC2)cc(OC)c1 | inconclusive: 11.2 µM [inhibitor, partial curve] | –
CSCCC(NC(=O)c1cccc(C)c1)C(=O)OCC(=O)NC(=O)c1cccn1C (stereo not given) | inconclusive: 8.91 µM [inhibitor, full curve, poor fit] | –
CN(Cc1ccccc1)Cc1c(O)ccc2ccccc12 | active: 0.794 µM | –
COc1ccc2sc(-c3ccc(SC)cc3)c(C#CCO)c2c1 | inconclusive: 44.7 µM [inhibitor, partial curve, poor fit] | –

A few values from the list.
Potency, Cc1cc(OCc2nc3ccccc3s2)ccc1N reads inconclusive: 44.7 µM [inhibitor, partial curve, poor fit]
Potency, COc1ccc(-c2c(-c3cc(OC)cc(OC)c3)n(C)c3ccc(-c4ccc(OC)cc4F)cc23)cc1 reads inactive
Potency, COc1ccc2sc(-c3ccc(SC)cc3)c(C#CCO)c2c1 reads inconclusive: 44.7 µM [inhibitor, partial curve, poor fit]

Remaining list, next part

SMILES | Potency | activity change, negative = inhibition
Cc1ccc(Sc2nc3c(c(=O)[nH]c(=O)n3C)n2Cc2ccccc2)cc1 | inactive | –
CCc1ccc(S(=O)(=O)c2nnn3c2nc(N2CCCC(C)C2)c2cc(Cl)ccc23)cc1 (stereo not given) | inconclusive: 112 µM [inhibitor, single point] | –
O=[S+]([O-])(c1cccs1)N1CCCC2(CC(c3cccc(C(F)(F)F)c3)=NO2)C1 (stereo not given) | inconclusive: 112 µM [inhibitor, partial curve, poor fit] | –
COc1ccc(CCNC(=O)Nc2nc(C(N)CCc3ccccc3)cs2)cc1OC (stereo not given) | inactive | –
Cc1cccc(C(=O)NC23CC4CC(CC(C4)C2)C3)c1 | inactive | –
CC1=C(C(=O)OC2CCC(C)CC2)C(c2ccc(O)c([N+](=O)[O-])c2)NC(=O)N1 (stereo not given) | inconclusive: 89.1 µM [inhibitor, single point] | –
COc1ccc(Cl)cc1NC(=O)CSCc1cc(=O)c2cc(F)ccc2[nH]1 | inactive | –
CC(=O)NC1(C)CCN(Cc2ccc(-c3cccc(C(F)(F)F)c3)cc2)C1 (stereo not given) | inconclusive: 56.2 µM [inhibitor, full curve, poor fit] | –
COc1ccc(S(=O)(=O)Nc2nc3ccccc3nc2NCC2CCCO2)cc1 (stereo not given) | inactive | –
COc1ccc(C2CC(c3cccc([N+](=O)[O-])c3)=NN2/C(C)=C/C(C)=O)cc1 (stereo not given) | inconclusive: 10 µM [inhibitor, full curve, poor fit] | –
C=CCOc1ccc(/C=N/NC(=O)CN(c2cc(Cl)ccc2OC)S(=O)(=O)c2ccc(C)c([N+](=O)[O-])c2)cc1 | – | inconclusive: -34.2% [inhibitor]
Cc1noc(C)c1-c1ccc2ncnc(NCc3ccccc3)c2c1 | inconclusive: 3.98 µM [inhibitor, full curve, poor fit] | –
CC(=O)N1N=C(c2ccc(Cl)cc2)CC1c1ccco1 (stereo not given) | inactive | –
Cc1nc2c(O)cccc2cc1CO | inactive | –
CC1Cc2nc(SCC(=O)c3ccccc3)n(Cc3ccccc3)c(=O)c2S1 (stereo not given) | inactive | –
CC(=O)Nc1ccc(NS(=O)(=O)c2ccc(C)cc2)cc1[N+](=O)[O-] | inconclusive: 3.55 µM [inhibitor, full curve, poor fit] | –
CCN1CCc2c(C#N)c(N3CCOCC3)nc(NCc3ccccc3)c2C1 | inconclusive: 100 µM [inhibitor, single point] | –
CCOC(=O)Cc1csc(-n2sc3ccccc3c2=O)n1 | inconclusive: 1.78 µM [inhibitor, full curve, poor fit] | –
O=C(/C=C/c1ccc([N+](=O)[O-])s1)N1CCCC1 | inactive | –
Cc1cc(NC(=O)COC(=O)CSCc2ccc(Cl)c(Cl)c2)no1 | inconclusive: 50.1 µM [inhibitor, partial curve, poor fit] | –
COc1ccc(-n2nnnc2/C=C/Nc2cc(C(F)(F)F)ccc2OC)cc1 | inconclusive: 28.2 µM [inhibitor, partial curve, poor fit] | –
COc1ccc(N2CCN(C(=O)CCn3cnc4onc(-c5ccc(F)cc5)c4c3=O)CC2)cc1 | inconclusive: 56.2 µM [inhibitor, partial curve, poor fit] | –

Retrieved by compound from above (three):
SMILES | Potency | activity change, negative = inhibition
Cc1cc(OCc2nc3ccccc3s2)ccc1N | inconclusive: 44.7 µM [inhibitor, partial curve, poor fit] | –
Cc1nccn1-c1c([N+](=O)[O-])c(=O)n(C)c2ccccc12 | inactive | –
COc1cc(C=O)ccc1Oc1nc(Nc2ccc(F)cc2F)nc(N2CCOCC2)n1 | inconclusive: 158 µM [inhibitor, partial curve, poor fit] | –

(further entries)

SMILES | Potency | activity change, negative = inhibition
Cc1ccc(S(=O)(=O)c2c(N)n(CCC(C)C)c3nc4ccccc4nc23)cc1 | inconclusive: 44.7 µM [inhibitor, partial curve] | –
O=C(Nc1ccccc1)C(=O)c1cn(CC(=O)N2CCOCC2)c2ccccc12 | inactive | –
CC(C)(C)C1CCc2c(sc(NC(=O)c3ccncc3)c2C(=O)Nc2ccccc2Cl)C1 (stereo not given) | inconclusive: 50.1 µM [inhibitor, partial curve, poor fit] | –
CNc1nc2cnc(-c3cc(OC)c(OC)c(OC)c3)cc2n1Cc1ccccc1 | inconclusive: 50.1 µM [inhibitor, partial curve, poor fit] | –
COc1ccc(NS(=O)(=O)c2ccc(NS(=O)(=O)c3ccc4c(c3)OCCO4)cc2)cc1 | inconclusive: 12.6 µM [inhibitor, full curve, poor fit] | –
Cn1nc(C(=O)N2CCCC(CN3CCCC3)CC2)c2ccccc21 (stereo not given) | inactive | –
CN(C)C(=O)c1ccc(-c2cc(Nc3ccccc3)ncn2)cc1 | inconclusive: 7.08 µM [inhibitor, partial curve, poor fit] | –
CC(C)C1S/C(=N/N=C/c2ccco2)NC1=O (stereo not given) | inactive | –
Cc1ccc(/C=N/Nc2nc3ccccc3s2)o1 | inconclusive: 44.7 µM [inhibitor, partial curve, poor fit] | –
Cc1cc2[nH]c3c4ccccc4nc(C)c3c2cc1C | inconclusive: 35.5 µM [inhibitor, partial curve, poor fit] | –
CCOC(=O)c1cc2cccc(C(C)C)c2[nH]1 | inactive | –
CC(NC(=O)c1ccc(-c2ccc(F)cc2)o1)c1ccccc1 (stereo not given) | inconclusive: 44.7 µM [inhibitor, partial curve, poor fit] | –
Cn1nc(Cc2n[nH]c(=S)n2C)c2ccccc2c1=O | inconclusive: 31.6 µM [inhibitor, single point] | –
CCCCC(=O)Nc1ccc(C(=O)OCc2cc(=O)n3nc(C4CC4)sc3n2)cc1 | inactive | –
COC(=O)Cn1cnc2c1c(=O)n(C)c(=O)n2C | inconclusive: 126 µM [inhibitor, partial curve, poor fit] | –
CCN(Cc1cccs1)C(=O)c1cccc(S(=O)(=O)N2CCN(C)CC2)c1 | inconclusive: 112 µM [inhibitor, partial curve, poor fit] | –
COc1ccc(/C=C/C(=O)NC(=S)Nc2ccc(S(=O)(=O)Nc3cc(OC)ncn3)cc2)cc1 | inconclusive: 15.8 µM [inhibitor, full curve, poor fit] | –
CSc1ccc(C(C)NC(=O)c2ccccc2C)cc1 (stereo not given) | inactive | –
O=C(Nc1nc(-c2ccco2)c(-c2ccco2)s1)c1c(F)cccc1Cl | inconclusive: 3.16 µM [inhibitor, full curve, poor fit] | –
COc1ccc(C2/C(=C(/O)c3ccccc3)C(=O)C(=O)N2c2ccccn2)cc1 (stereo not given) | inconclusive: 35.5 µM [inhibitor, partial curve, poor fit] | –
CSc1cccc(NC(=O)N2C[C@H](c3nc(-c4ccccc4)no3)[C@@H](C)C2)c1 | inconclusive: 31.6 µM [inhibitor, partial curve, poor fit] | –
